# In all, about 310,000 compounds went through this assay and about 17,000 (5.5%) were called active. Inconclusive means that the source gave no clear call. Such entries were picked first, then a sample of the others. The call rests on the fitted dose curve; in most records, active means well fitted inhibition curve with a large enough effect; inconclusive means small, poorly fitted or top-dose-only effect, or effect the other way; inactive means no such curve, though single readings can be large or run the other way. Potencies of inconclusive entries are doubtful fits and often do not repeat.
# The chains behind the UniProt entries cited, without tags or fusion partners. Where a name states a change or a piece, a line headed by the entry shows the natural chain unless it says otherwise.
# UniProt P51450: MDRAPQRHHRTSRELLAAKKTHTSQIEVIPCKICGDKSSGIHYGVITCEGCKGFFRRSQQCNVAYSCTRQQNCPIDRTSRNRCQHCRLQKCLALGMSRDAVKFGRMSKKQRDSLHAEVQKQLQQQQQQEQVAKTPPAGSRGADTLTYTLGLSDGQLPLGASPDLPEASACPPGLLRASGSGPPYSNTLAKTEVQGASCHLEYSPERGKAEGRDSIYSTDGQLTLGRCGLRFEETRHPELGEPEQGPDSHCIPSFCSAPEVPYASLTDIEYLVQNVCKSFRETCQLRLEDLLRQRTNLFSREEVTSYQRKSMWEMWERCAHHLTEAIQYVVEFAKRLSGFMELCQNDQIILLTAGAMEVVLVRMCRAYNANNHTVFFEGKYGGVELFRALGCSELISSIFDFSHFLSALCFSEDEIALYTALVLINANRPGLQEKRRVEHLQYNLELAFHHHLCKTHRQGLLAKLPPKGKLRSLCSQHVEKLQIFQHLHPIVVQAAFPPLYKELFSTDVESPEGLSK
# Target: Nuclear receptor ROR-gamma (Mus musculus) (UniProt P51450)
# Test: qHTS for inhibitors of ROR gamma transcriptional activity; further: nearly all actives have a fitted effect of over 60% in size
# Conditions: Drosophila S2 Gal4-RORgamma UAS-luciferase reporter, 20 h; activity change, negative = inhibition: at 53.6 µM (top of the series)
# Procedure, shortened: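 ROR gamma transcriptional activity was tracked as Gal4-UAS luciferase output in stably transfected Drosophila Schneider cells, with compound added 1 hr before 700 uM copper sulfate induction and a 20 hr ambient-temperature incubation.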
# On the % scale 0 is the no-effect control and ±100 the full control effect; potency means the concentration at half of the fitted maximal effect.
SMILES,Potency,"activity change, negative = inhibition"
O=c1c2ccccc2cnn1Cc1n[nH]c(=S)n1-c1ccc(Cl)cc1,"inconclusive: 17.8 µM [inhibitor, single point]",–
C/C(=N\NC(=O)CCc1c[nH]c2ccccc12)c1cccc([N+](=O)[O-])c1,"inconclusive: 15.8 µM [activator, partial curve]",–
CC(=O)N1c2ccc(S(=O)(=O)NCCc3ccc(Cl)cc3)cc2CC1C (stereo not given),"inconclusive: 35.5 µM [activator, single point]",–
CC(C)OCCCNc1ncnc2c1nc1n2CCCC1,–,inactive: 2.96%
COc1ccc(CN=CC2=C(O)CC(C)(C)CC2=O)cc1,"inconclusive: 5.01 µM [activator, partial curve]",–
CCN(Cc1ccccc1)S(=O)(=O)c1ccc(C(=O)N(CCCN(C)C)c2nc3c(F)cccc3s2)cc1,"inconclusive: 11.2 µM [inhibitor, partial curve]",–
CCOc1ccc(-n2c(N)c(-c3nc4ccccc4[nH]3)sc2=S)cc1,"inconclusive: 35.5 µM [inhibitor, single point]",–
Cc1ccc2oc(=O)c3cnn(CC(=O)NCCC(C)C)c3c2c1,"inconclusive: 12.6 µM [inhibitor, partial curve, poor fit]",–
Cc1cc(Br)c2nc3c(c(C(=O)O)c2c1)CCCCC3,"inconclusive: 1 µM [inhibitor, full curve, poor fit]",–
O=C(O)c1ccc2nc(-c3ccccc3)c(-c3ccccc3)nc2c1,"inconclusive: 5.01 µM [inhibitor, partial curve]",–
CCOc1ncccc1C(=O)OC(C)C(=O)Nc1ccc(CC)cc1 (stereo not given),"inconclusive: 0.708 µM [inhibitor, single point]",–
Cc1ccc(CC(=O)N2CCC(c3nc4c(nnn4Cc4ccccc4)c(=O)[nH]3)CC2)cc1,"inconclusive: 15.8 µM [activator, partial curve]",–
Cc1ccc(C(=O)OCC(=O)NC2CCCCC2)o1,–,inactive: 20.3%
CSc1nnc(-c2cccc(C)c2)n1N,–,inactive: 6.82%
CCC(=O)NNC(=O)CSc1nnc(-c2ccccc2)c(-c2ccccc2)n1,–,inactive: -17.5%
COc1ccc(CCN2C(=NC(=O)C(C)C)SC3CS(=O)(=O)CC32)cc1 (stereo not given),–,inactive: -12.8%
COc1ccc2c(c1)C(=O)[C@@H](OC(=O)N[C@H](C)C1CCCCC1)[C@H](c1ccc(OC)c(Br)c1)O2,–,inactive: -9.83%
Cc1cc(C)n(-c2nnc(NC34CC5CC(CC(C5)C3)C4)nn2)n1,"inconclusive: 25.1 µM [inhibitor, single point]",–
Cc1ccc(NC(=O)C2CC(=O)N/C(=N/N=C/c3ccco3)S2)cc1C (stereo not given),"inconclusive: 35.5 µM [inhibitor, single point]",–
CC(=O)Oc1ccc(N2C(=O)c3cccc4c([N+](=O)[O-])ccc(c34)C2=O)cc1,"inconclusive: 0.224 µM [activator, single point]",–
CC(=O)N(C)c1ccc(NC(=O)Nc2ccccc2C)cc1,"inconclusive: 25.1 µM [inhibitor, single point]",–
CCc1c(O)nc(SCC(=O)Nc2nc3ccccc3s2)n(-c2ccc(C)cc2)c1=O,"inconclusive: 35.5 µM [inhibitor, single point]",–

# Reprinted at random: 3 compounds from above, in no set order.
SMILES,Potency,"activity change, negative = inhibition"
CC(=O)N1c2ccc(S(=O)(=O)NCCc3ccc(Cl)cc3)cc2CC1C (stereo not given),"inconclusive: 35.5 µM [activator, single point]",–
O=C(O)c1ccc2nc(-c3ccccc3)c(-c3ccccc3)nc2c1,"inconclusive: 5.01 µM [inhibitor, partial curve]",–
C/C(=N\NC(=O)CCc1c[nH]c2ccccc12)c1cccc([N+](=O)[O-])c1,"inconclusive: 15.8 µM [activator, partial curve]",–

# Next structures

SMILES,Potency,"activity change, negative = inhibition"
O=C(Nc1ccc(Cl)cc1)/C(=C/c1cccc(O)c1)c1nc2ccccc2s1,active: 11.2 µM,–
Cc1noc(C)c1COc1ccc(C(=O)Nc2ccccn2)cc1,"inconclusive: 10 µM [activator, partial curve]",–
O=C(Cn1c2ccccc2c(=O)c2ccccc21)N/N=C/c1ccc(N2CCCC2)c([N+](=O)[O-])c1,"inconclusive: 3.16 µM [inhibitor, partial curve, poor fit]",–
COc1ccc(/C=N/Nc2nc3ccccc3s2)cc1O,"inconclusive: 14.1 µM [inhibitor, single point]",–
CC(C)(C)C(=O)NC(=S)Nc1sc2c(c1C#N)CCCCC2,active: 7.08 µM,–
CCCC(=O)N1CCCC(c2nc(-c3cccs3)no2)C1 (stereo not given),"inconclusive: 6.31 µM [activator, single point]",–
CCn1c(N2CCN(S(=O)(=O)c3ccc(Cl)cc3)CC2)nc2ccccc21,"inconclusive: 35.5 µM [inhibitor, single point]",–
CCOC(=O)N1CCC(NC(=O)c2ccc3snnc3c2)CC1,"inconclusive: 35.5 µM [inhibitor, single point]",–
CC(=O)Nc1ccc(S(=O)(=O)Nc2cccn(Cc3ccc(C)cc3)c2=O)cc1,"inconclusive: 4.47 µM [activator, full curve]",–
[O-]/C(=C(\C(=S)Nc1cccc2ccccc12)[n+]1ccccc1)c1cccs1,"inconclusive: 25.1 µM [inhibitor, single point]",–
O=C(CN1CCN(c2ccccc2)CC1)Nc1nnc(-c2ccccc2)s1,"inconclusive: 35.5 µM [inhibitor, single point]",–
CC(C)(C)NC(=O)Cn1nnc(-c2ccc(OCc3c(F)cccc3Cl)cc2)n1,"inconclusive: 12.6 µM [activator, partial curve]",–
O=C(CSCCN1C(=O)c2ccccc2C1=O)Nc1ccc2ccccc2c1,"inconclusive: 35.5 µM [activator, single point]",–
CN1c2ccccc2C(O)=C(C(=S)Nc2ccc(Cl)cc2)S1(=O)=O,"inconclusive: 35.5 µM [inhibitor, single point]",–
CC1=C(C(=O)Nc2ccccc2Cl)C(c2ccc(N(C)C)cc2)NC(=O)N1 (stereo not given),"inconclusive: 14.1 µM [activator, single point]",–
Cc1ccccc1S(=O)(=O)c1cc2ccccc2nc1N,"inconclusive: 17.8 µM [activator, partial curve, poor fit]",–
O=S(=O)(Nc1cccc2cccnc12)c1ccc(S(=O)(=O)N2CCCC2)cc1,active: 2.51 µM,–
CCN(C(=O)CCN1C(=O)S/C(=C\c2ccccc2)C1=O)C1CCS(=O)(=O)C1 (stereo not given),"inconclusive: 35.5 µM [activator, single point]",–
O=C(c1ccccc1)N1CCN(c2ncnc3c2cnn3-c2ccccc2)CC1,"inconclusive: 22.4 µM [activator, partial curve, poor fit]",–
COc1ccc(OC)c2[nH]c(=O)c(CCNS(=O)(=O)c3ccc(Cl)cc3)cc12,"inconclusive: 10 µM [activator, partial curve]",–
CN(C)c1ccc(-c2nc(NC3CCNCC3)c3ccccc3n2)cc1,"inconclusive: 35.5 µM [inhibitor, single point]",–
CCOc1ccc(C(=O)NCC(=O)OCc2c(F)cccc2Cl)cc1,"inconclusive: 11.2 µM [activator, single point]",–

SMILES,Potency,"activity change, negative = inhibition"
CN(C)c1ccc(C2NCCS2)cc1 (stereo not given),–,inactive: 0.148%
CC(=O)Nc1ccc(S(=O)(=O)Oc2ccc(C(=S)N3CCCCC3)cc2)cc1,"inconclusive: 12.6 µM [activator, partial curve]",–
CCOC(=O)c1cn2nc(N3CCCCC3)ccc2n1,"inconclusive: 10 µM [inhibitor, partial curve, poor fit]",–
COc1ccc(C2CCCN2C(=S)Nc2ccc(C)cc2Cl)cc1OC (stereo not given),"inconclusive: 35.5 µM [inhibitor, single point]",–
Cn1cccc1-c1nc2ccccc2n1Cc1ccccc1,"inconclusive: 20 µM [inhibitor, partial curve, poor fit]",–
CCOC(=O)c1c(C)oc2c1c(CN1CCN(CCO)CC1)c(O)c1ccccc12,"inconclusive: 35.5 µM [inhibitor, single point]",–
O=C(Oc1ccc([N+](=O)[O-])cc1)c1ccc2ccccc2n1,"inconclusive: 10 µM [activator, partial curve]",–
COc1ccc(OC)c(NC(=O)CN(C)S(=O)(=O)c2ccc3nc(C)sc3c2)c1,"inconclusive: 31.6 µM [activator, single point]",–
CCNC(=S)N(CCc1ccc(OC)c(OC)c1)Cc1cc2cc(OC)ccc2[nH]c1=O,–,inactive: 4.56%
COc1ccc(CC(=O)Nc2nc(-c3ccc(OC)c(OC)c3)cs2)cc1OC,"inconclusive: 11.2 µM [activator, partial curve]",–
O=C(Nc1ccccc1)C1C2/C=C\CCCCC21 (stereo not given),–,inactive: 41.9%
O=C(C(=O)N1CCN(c2ccccc2F)CC1)c1cn(CC(=O)N2CCOCC2)c2ccccc12,"inconclusive: 0.708 µM [activator, single point]",–
CCCCc1ccc(/C=C(\C#N)C(N)=S)s1,active: 7.08 µM,–
COc1cc(CC(=O)Nc2ccc(Cl)c(C(F)(F)F)c2)cc(OC)c1OC,"inconclusive: 14.1 µM [activator, partial curve]",–
CC1(C)Cc2c(sc3[nH]c(=S)n(Cc4ccccc4)c(=O)c23)CO1,–,inactive: 7.88%
CC1CN=C(N(C(=O)Nc2ccccc2)c2ccc(S(=O)(=O)N3CCOCC3)cc2)S1 (stereo not given),"inconclusive: 0.126 µM [activator, single point]",–
O=C(Nc1ccccc1C(=O)NC1CCCC1)NC1CCCC1,–,inactive: 4.46%
Cc1nc2cc(NC(=O)Nc3ccc(Br)cc3)ccc2o1,"inconclusive: 1.78 µM [activator, partial curve, poor fit]",–
COc1ccc(Cn2cc(F)c(=O)n(C)c2=O)cc1[N+](=O)[O-],"inconclusive: 15.8 µM [activator, single point]",–
COc1ccc(CC(=O)N2CCN=C2SCc2cccc([N+](=O)[O-])c2)cc1,"inconclusive: 11.2 µM [activator, partial curve]",–
O=c1[nH]c2cc3c(cc2cc1CN(CCO)S(=O)(=O)c1ccccc1)OCCO3,"inconclusive: 10 µM [activator, partial curve, poor fit]",–

# — PubChem BioAssay AID2551 (National Center for Advancing Translational Sciences (NCATS), 2010)
